According to patent publication US6762290:
Results from cells or extracts need not show a direct contact.

Chains of the proteins cited; added tags and fusions are not shown. Residues count along the entry.
UniProt P35968, 20-1356: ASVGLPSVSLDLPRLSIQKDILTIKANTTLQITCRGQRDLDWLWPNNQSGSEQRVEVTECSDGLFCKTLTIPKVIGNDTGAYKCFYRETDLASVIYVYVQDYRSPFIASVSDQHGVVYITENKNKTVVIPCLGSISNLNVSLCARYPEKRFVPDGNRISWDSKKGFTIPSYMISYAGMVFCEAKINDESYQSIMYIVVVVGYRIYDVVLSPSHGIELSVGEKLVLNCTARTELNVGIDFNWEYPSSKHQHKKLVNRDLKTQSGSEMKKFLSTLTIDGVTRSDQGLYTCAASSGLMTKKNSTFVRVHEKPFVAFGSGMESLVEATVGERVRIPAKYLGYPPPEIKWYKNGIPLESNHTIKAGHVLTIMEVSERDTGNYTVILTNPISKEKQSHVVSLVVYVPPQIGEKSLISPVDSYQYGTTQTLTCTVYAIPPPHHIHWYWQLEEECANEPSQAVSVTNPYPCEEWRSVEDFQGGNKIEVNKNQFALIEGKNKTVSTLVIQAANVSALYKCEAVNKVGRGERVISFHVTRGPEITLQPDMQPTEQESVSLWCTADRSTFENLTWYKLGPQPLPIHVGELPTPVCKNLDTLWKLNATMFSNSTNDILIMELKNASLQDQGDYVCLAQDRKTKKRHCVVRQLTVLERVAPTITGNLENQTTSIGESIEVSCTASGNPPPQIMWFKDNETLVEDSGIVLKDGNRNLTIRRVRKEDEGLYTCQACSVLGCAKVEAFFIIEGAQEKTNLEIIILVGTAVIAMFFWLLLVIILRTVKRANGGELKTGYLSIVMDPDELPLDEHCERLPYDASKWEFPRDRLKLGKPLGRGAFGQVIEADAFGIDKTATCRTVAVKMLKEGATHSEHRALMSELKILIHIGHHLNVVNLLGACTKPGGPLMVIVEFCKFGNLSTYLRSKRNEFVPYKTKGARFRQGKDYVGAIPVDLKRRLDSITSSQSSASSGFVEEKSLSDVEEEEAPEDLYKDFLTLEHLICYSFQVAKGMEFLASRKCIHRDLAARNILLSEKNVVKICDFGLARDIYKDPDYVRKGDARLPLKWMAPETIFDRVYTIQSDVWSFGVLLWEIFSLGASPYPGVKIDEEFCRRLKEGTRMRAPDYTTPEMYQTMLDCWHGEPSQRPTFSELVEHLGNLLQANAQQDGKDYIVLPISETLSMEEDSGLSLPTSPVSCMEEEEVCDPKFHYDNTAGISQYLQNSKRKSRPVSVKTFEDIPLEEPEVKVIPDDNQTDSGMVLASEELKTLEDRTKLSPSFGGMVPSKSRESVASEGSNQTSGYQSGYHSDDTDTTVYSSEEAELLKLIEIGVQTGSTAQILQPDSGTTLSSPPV

Target: VEGF receptors on HUVEC (VEGFR2/KDR) (Homo sapiens) (UniProt P35968)
Assay: competition with a labelled probe
Details: 2'-F pyrimidines; no displacement of 125I-VEGF-165 up to 1000 nM; non-antagonist though it binds KDR/Fc; protein on the cell surface

GGGAGGACGAUGCGGGGCCUGUUUGGAUCAUACCGAUCGUCAAUCCAAGAGUGGUCAGACGACUCGCCCGA [K1]
IC50: > 1000 nM
